PubChem BioAssay AID590 (National Center for Advancing Translational Sciences (NCATS), 2007)
Where “and” joins values, the source holds several entries; their conditions need not be identical. Equal entries are not always repeated. Among all 59,000 compounds or so, about 6,500 (11%) were called active. This list was built around the results that the source calls inconclusive (neither active nor inactive); the mix of calls is not that of the screen. Rule as the data show it: active = max dye-equivalent concentration above about 10 nM; inconclusive = mostly about 1.1 nM to 9.6 nM; inactive = weaker than that.

experiment: qHTS Assay for Spectroscopic Profiling in A350 Spectral Region; details: Compound autofluorescence, 340/450 nm, Alexa 350 dye-equivalents; stronger effect = higher value

**Q.** With COc1cc(NC(=O)c2ccc(Br)o2)ccc1NC(=O)c1ccccc1Cl as the molecule, how does the max dye-equivalent concentration read?
**A.** The max dye-equivalent concentration was inconclusive: 3.1e-09 M.

**Q.** With CC(C)CNC(=O)COc1ccc2c3c(c(=O)oc2c1)CCC3 as the molecule, how does the max dye-equivalent concentration read?
**A.** Its max dye-equivalent concentration is inconclusive: 9.2e-09 M.

**Q.** For Cc1cc(Br)ccc1NC(=O)CNC(=O)CN(C)Cc1nc2ccccc2c(=O)[nH]1, which max dye-equivalent concentration is on record?
**A.** Its max dye-equivalent concentration is “inactive”.

**Q.** With COc1ccc(-n2c(=O)c(-c3cccs3)nc3cnc(N4CCOCC4)nc32)cc1 as the molecule, how does the max dye-equivalent concentration read?
**A.** Its max dye-equivalent concentration is inconclusive: 2e-09 M.

**Q.** For COc1ccc(OC)c(-c2cc(C(=O)N3CCN(c4ncccn4)CC3)c3ccccc3n2)c1, which max dye-equivalent concentration is on record?
**A.** The max dye-equivalent concentration was inconclusive: 5.6e-09 M.

**Q.** Which max dye-equivalent concentration does the source give for Nc1nc(N)c2[nH]c(CNc3ccc(C(=O)O)cc3)nc2n1 here?
**A.** The max dye-equivalent concentration was “inactive”.

**Q.** With COc1ccc(CNc2ccnc(-c3ccccc3Cl)n2)c(OC)c1 as the molecule, how does the max dye-equivalent concentration read?
**A.** The max dye-equivalent concentration was inconclusive: 1.2e-09 M.

**Q.** With CC1CCCC(C)N1CCNC(=O)C1CCN(S(=O)(=O)N2CCCCC2)CC1 (configuration not stated) as the molecule, how does the max dye-equivalent concentration read?
**A.** Its max dye-equivalent concentration is “inactive”.

**Q.** With CC(C)Oc1ccc(C(=O)N(Cc2ccco2)C2CCS(=O)(=O)C2)cc1 (configuration not stated) as the molecule, how does the max dye-equivalent concentration read?
**A.** Its max dye-equivalent concentration is inconclusive: 2.7e-09 M.

**Q.** Which max dye-equivalent concentration does the source give for COc1ccc(C(=O)N2CCC3(CCCN(C)C3)CC2)cc1 here?
**A.** Its max dye-equivalent concentration is “inactive”.

**Q.** For COc1cc(C2Oc3cc(C4Oc5cc(O)cc(O)c5C(=O)C4O)ccc3OC2CO)ccc1O (configuration not stated), which max dye-equivalent concentration is on record?
**A.** The max dye-equivalent concentration was “inactive”.

**Q.** For Cc1sc2nc(C(C)Nc3ccccc3N3CCOCC3)[nH]c(=O)c2c1C (configuration not stated), which max dye-equivalent concentration is on record?
**A.** The max dye-equivalent concentration was inconclusive: 9.3e-09 M.

**Q.** Which max dye-equivalent concentration does the source give for Cn1cc(C(=O)c2ccccc2)cc1-c1nc2ccccc2n1C here?
**A.** Its max dye-equivalent concentration is inconclusive: 9.1e-09 M.

**Q.** For Cn1nnnc1SCc1cn2cccnc2n1, which max dye-equivalent concentration is on record?
**A.** The max dye-equivalent concentration was active: 1.9e-07 M.

**Q.** For CCCn1cnc2cc(NCc3cccc(OC)c3O)ccc21, which max dye-equivalent concentration is on record?
**A.** Its max dye-equivalent concentration is “inactive”.

**Q.** For COc1cccc(C2C(C#N)=C(N)Oc3c2oc(CO)cc3=O)c1OC (configuration not stated), which max dye-equivalent concentration is on record?
**A.** Its max dye-equivalent concentration is inconclusive: 1.6e-09 M.

**Q.** Which max dye-equivalent concentration does the source give for N#Cc1ccc(COc2ccc(CCO)cc2-n2nc3ccccc3n2)cc1 here?
**A.** Its max dye-equivalent concentration is inconclusive: 1.6e-09 M.

**Q.** With Cc1c(N(C(=O)c2cc(=O)[nH]c3ccccc23)C(C)C)c(=O)n(-c2ccccc2)n1C as the molecule, how does the max dye-equivalent concentration read?
**A.** The max dye-equivalent concentration was inconclusive: 1.2e-09 M.

**Q.** With Cn1c(=O)c2c(nc(Oc3ccc4c(c3)OCO4)n2Cc2ccc(F)cc2)n(C)c1=O as the molecule, how does the max dye-equivalent concentration read?
**A.** The max dye-equivalent concentration was inconclusive: 2.7e-09 M.

**Q.** With CCN1CC=C2C(C#N)=C(N)C(C#N)(C#N)C(CCc3ccccc3)C2C1 (configuration not stated) as the molecule, how does the max dye-equivalent concentration read?
**A.** Its max dye-equivalent concentration is active: 8.8e-07 M.

**Q.** Which max dye-equivalent concentration does the source give for CSc1nnc(NC(=O)c2ccc(C)c(S(=O)(=O)N3CCOCC3)c2)s1 here?
**A.** The max dye-equivalent concentration was “inactive”.

**Q.** Which max dye-equivalent concentration does the source give for COC(=O)c1ccc2c(=O)n(CCN3CCOCC3)c(=S)[nH]c2c1 here?
**A.** The max dye-equivalent concentration was active: 1.2e-08 M.

**Q.** Which max dye-equivalent concentration does the source give for CN1CC[C@H](CN2c3ccccc3Sc3ccccc32)C1 here?
**A.** Its max dye-equivalent concentration is inconclusive: 4.1e-09 M.

**Q.** With O=C(CCSc1ccccc1)N1CCN(C(=O)c2ccco2)CC1 as the molecule, how does the max dye-equivalent concentration read?
**A.** The max dye-equivalent concentration was “inactive”.

**Q.** With Cn1c(=N)n(CC(O)c2ccco2)c2ccccc21 (configuration not stated) as the molecule, how does the max dye-equivalent concentration read?
**A.** The max dye-equivalent concentration was inconclusive: 2.5e-09 M.

**Q.** For Cn1cc(CNC(=O)C2CCCCC2)cn1, which max dye-equivalent concentration is on record?
**A.** The max dye-equivalent concentration was “inactive”.

**Q.** Which max dye-equivalent concentration does the source give for O=C(CN1CCOCC1)Nc1ccccc1-c1ccccc1 here?
**A.** The max dye-equivalent concentration was “inactive”.

**Q.** With CC1CCc2cc(F)cc3c(O)c(C(=O)NCc4ccco4)c(=O)n1c23 (configuration not stated) as the molecule, how does the max dye-equivalent concentration read?
**A.** Its max dye-equivalent concentration is inconclusive: 9.5e-09 M.

**Q.** Which max dye-equivalent concentration does the source give for Cc1c(/C(O)=C2/C(=O)C(=O)N(Cc3cccnc3)C2c2cccs2)cnn1-c1ccccc1 (configuration not stated) here?
**A.** The max dye-equivalent concentration was inconclusive: 3.1e-09 M.

**Q.** Which max dye-equivalent concentration does the source give for Cc1nc(-c2cnn(-c3ccccc3)c2)c2cc(C)oc2n1 here?
**A.** Its max dye-equivalent concentration is inconclusive: 1.8e-09 M.

**Q.** Which max dye-equivalent concentration does the source give for CCCC(=O)NC(C)C(c1cccs1)N1CCN(C)CC1 (configuration not stated) here?
**A.** The max dye-equivalent concentration was inconclusive: 3.8e-09 M.

**Q.** For CCOCCCNc1ncnc2c1[nH]c1ccccc12, which max dye-equivalent concentration is on record?
**A.** Its max dye-equivalent concentration is inconclusive: 1.2e-09 M.

**Q.** With Cn1nccc1C(=O)Nn1cnnc1 as the molecule, how does the max dye-equivalent concentration read?
**A.** Its max dye-equivalent concentration is inconclusive: 1.6e-09 M.

**Q.** With CN1CCc2cccc3c2[C@@H]1Cc1ccc(O)c(O)c1-3 as the molecule, how does the max dye-equivalent concentration read?
**A.** Its max dye-equivalent concentration is active: 3.1e-08 M and active: 2.7e-08 M and inconclusive: 7.1e-09 M.

**Q.** Which max dye-equivalent concentration does the source give for O=c1[nH]c(CS(=O)(=O)c2ccccc2)nc2ccccc12 here?
**A.** The max dye-equivalent concentration was inconclusive: 9.5e-09 M.

**Q.** With COc1ccccc1OCCNC(=O)c1ccccc1C as the molecule, how does the max dye-equivalent concentration read?
**A.** The max dye-equivalent concentration was “inactive”.

**Q.** With CC1CC2(CC(C)(C(=O)CSc3n[nH]c(-c4ccccc4Cl)n3)OC2=O)C(=O)O1 (configuration not stated) as the molecule, how does the max dye-equivalent concentration read?
**A.** Its max dye-equivalent concentration is inconclusive: 1.2e-09 M.

**Q.** Which max dye-equivalent concentration does the source give for O=C(O)/C(=C1/OC(=O)c2ccccc21)c1ccccc1 here?
**A.** The max dye-equivalent concentration was inconclusive: 2.4e-09 M.

**Q.** For O=C(O)c1ccc(C(=O)Nc2cccc3ccccc23)c(C(=O)O)c1, which max dye-equivalent concentration is on record?
**A.** The max dye-equivalent concentration was inconclusive: 2.1e-09 M.

**Q.** With Cn1ccnc1SCC(=O)Nc1ccc(Oc2ccccc2)cc1 as the molecule, how does the max dye-equivalent concentration read?
**A.** The max dye-equivalent concentration was inconclusive: 1.2e-09 M.

**Q.** Which max dye-equivalent concentration does the source give for CCN1CCN(C(=O)CN(C)S(=O)(=O)c2ccc(OC)cc2)CC1 here?
**A.** Its max dye-equivalent concentration is “inactive”.

**Q.** Which max dye-equivalent concentration does the source give for COc1ccc(-c2ccc(CCC(=O)O)n2NC(=O)c2cccs2)cc1 here?
**A.** Its max dye-equivalent concentration is inconclusive: 3e-09 M.

**Q.** With CC(C)(C)OC(=O)N1CCC(C(=O)O)CC1 as the molecule, how does the max dye-equivalent concentration read?
**A.** The max dye-equivalent concentration was inconclusive: 1.7e-09 M.

**Q.** Which max dye-equivalent concentration does the source give for Cc1cc2n(n1)C(c1ccsc1)Nc1ccccc1-2 (configuration not stated) here?
**A.** The max dye-equivalent concentration was active: 1.2e-08 M.

**Q.** Which max dye-equivalent concentration does the source give for Cc1ccc(Oc2ccccc2)c(NC=O)c1 here?
**A.** Its max dye-equivalent concentration is inconclusive: 2.8e-09 M.

**Q.** With COc1cc(OC)cc(C(=O)N2CCN(c3ncccn3)CC2)c1 as the molecule, how does the max dye-equivalent concentration read?
**A.** Its max dye-equivalent concentration is “inactive”.

**Q.** For COc1cccc(C(=O)Nc2ccc(-c3nnc(-c4ccco4)o3)cc2)c1, which max dye-equivalent concentration is on record?
**A.** Its max dye-equivalent concentration is active: 2.5e-08 M.

**Q.** For CN(Cc1cccs1)C(=O)COc1ccc(-c2nnco2)cc1, which max dye-equivalent concentration is on record?
**A.** Its max dye-equivalent concentration is “inactive”.

**Q.** Which max dye-equivalent concentration does the source give for C=CCn1c(=N)c(C(=O)NCCCOC)cc2c(=O)n3ccccc3nc21 here?
**A.** Its max dye-equivalent concentration is active: 1.9e-05 M.

**Q.** For Cc1ccc(-n2c(SCc3cn4ccsc4n3)nc3ccccc3c2=O)cc1, which max dye-equivalent concentration is on record?
**A.** Its max dye-equivalent concentration is inconclusive: 1.3e-09 M.

**Q.** With O=C(Cn1ccc2ccccc2c1=O)NCCC(=O)Nc1ccc2c(c1)OCCO2 as the molecule, how does the max dye-equivalent concentration read?
**A.** The max dye-equivalent concentration was inconclusive: 4.9e-09 M.

**Q.** For Cc1ccc(C(=O)Nc2ncc3c(n2)CC(c2ccco2)CC3=O)cc1 (configuration not stated), which max dye-equivalent concentration is on record?
**A.** Its max dye-equivalent concentration is inconclusive: 1.5e-09 M.

**Q.** For CC(=O)c1c(C)[nH]c(C(=O)CSc2nc3ccccc3c(=O)n2CCCN2CCOCC2)c1C, which max dye-equivalent concentration is on record?
**A.** The max dye-equivalent concentration was inconclusive: 3.6e-09 M.

**Q.** With CCN(CC)CCN(Cc1cc2cc(C)ccc2[nH]c1=O)C(=O)Nc1ccccc1OC as the molecule, how does the max dye-equivalent concentration read?
**A.** The max dye-equivalent concentration was inconclusive: 1.6e-09 M.

**Q.** Which max dye-equivalent concentration does the source give for N#Cc1c(N)c(C#N)c(-c2ccc(O)cc2)c2c1CCCC2 here?
**A.** The max dye-equivalent concentration was active: 4e-07 M.

**Q.** For CC(=O)[C@H]1CC[C@H]2[C@@H]3CCC4=CC(=O)CC[C@]4(C)[C@H]3CC[C@]12C, which max dye-equivalent concentration is on record?
**A.** The max dye-equivalent concentration was inconclusive: 1.9e-09 M.

**Q.** For N#Cc1c(-c2ccco2)cc(C2CC2)nc1SCC(=O)c1ccccc1, which max dye-equivalent concentration is on record?
**A.** The max dye-equivalent concentration was “inactive”.
